Measurements as given in article PMC7661038.

Biological target: GST alone
Assay: pull-down; 20 µg of GST fusion protein on glutathione sepharose beads incubated 2 hr at 4°C with 35S-labelled in vitro translated Zc3h10; three washes with binding buffer; SDS-PAGE and autoradiography; only the target purified

B1: [35S]-Zc3h10 (protein, UniProt Q8R205 1-435)
chain: MPDRDSYANGTGSSGGGPGGGGSEEASGAGTGSGGATSDAICRDFLRNVCKRGKRCRYRHPDMSEVSNLGVSKNEFIFCHDFQNKECSRPNCRFIHGSKEDEDGYKKTGELPPRLRQKVAAGLGLSPADLPNGKEEVPICRDFLKGDCQRGAKCKFRHLQRDFEFDARGGGGTGGGGSTGSAPPGRRHDLYDIYDLPERGFEDHEPGPKRRRGGCCPPDGPHFESYECNLAPLRGVECRLLEEENALLRKRVEELKKQVSNLLATNEVLLEQNAQFRNQAKVMTLSSTAPATEQTLAPTVGTVATFNHGIAQTHTTLSSQALQPRPVSQQELVAPTGAPAAPPTNAAPPAAPPPPPPHLNPEITPLSAALAQTIAQGMAPPPVSMAPVAVSVAPVAPVAVSMAQPLAGITMSHTTTPMVTYPIASQSMRITAMPH
modifications: 35S-labelled
In the case of B1, the binding is reported as “no binding (tested: 20 µg of GST fusion proteins)”.

These are yes or no findings as the source states them, for the method shown. Binding seen in cells or lysates may run through a third protein.
